# According to PubChem BioAssay AID624297 (National Center for Advancing Translational Sciences (NCATS), 2012):
# “And” between values parts separate entries of the source, which are not always exact repeats. Identical values can stand only once. The whole screen tested about 340,000 compounds, of which about 6,200 (1.8%) were called active. The shares of active, inactive and inconclusive entries below differ from those in the screen. The call rests on the fitted dose curve; in most records, active means well fitted activation curve with a large enough effect; inconclusive means small, poorly fitted or top-dose-only effect; inactive means no such curve, though single readings can be large or run the other way. Where the call is inconclusive, the potency comes from a doubtful curve fit.
# Assay: A quantitative high throughput screen for small molecules that induce DNA re-replication in SW480 colon adenocarcinoma cells. Further: nearly all actives have a fitted effect of over 55% in size. On re-replication activation: % of control where 0% means no effect.
# Conditions: Hoechst DNA content imaging, 48 h; re-replication activation: at 46.1 µM (top of the series) unless noted
# Summary of the method: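 Image-based DNA-content assay: after two days of treatment, nuclei were labelled with the DNA dye Hoechst and imaged, and hits were compounds raising the count of nuclei showing high fluorescence intensity.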
# Potency means the concentration at half of the fitted maximal effect.
SMILES,Potency,re-replication activation
CC(=O)C[C@H](O)CC(=O)[C@@H]1OC(=O)CCCCCc2ccccc21,"inconclusive: 29.1 µM [activator, single point]",–
CCOc1ccccc1N(CC(=O)NC1CCCC1)S(=O)(=O)c1ccc(C)cc1,–,inactive: 2.06%
CCOC(=O)c1oc2ccc(S(=O)(=O)N3CCOCC3)cc2c1C,–,inactive: -11.3%
O=c1c2c3c(sc2n(CCN2CCOCC2)c(=O)n1Cc1ccco1)CCCCC3,"inconclusive: 5.17 µM [activator, single point]",–
N#Cc1c(NC(=O)CSc2nc3c(c(C(F)(F)F)n2)CCc2ccccc2-3)sc2c1CCCC2,–,inactive: -20.8%
CC(C)(C)c1ccc(C(=O)NNC(=S)NC(=O)c2cccnc2)cc1,active: 14.6 µM,–
CC(C)Cn1c(C(C)C)nc([N+](=O)[O-])c1S(=O)(=O)c1ccc(F)cc1,active: 18.4 µM,–
O=C(c1cccc(S(=O)(=O)N2CCc3ccccc3C2)c1)N1CCN(c2ccc(O)cc2)CC1,"inconclusive: 25.9 µM [activator, partial curve, poor fit]",–
O=[N+]([O-])c1ccc(S(=O)(=O)CC2CSc3nc4ccccc4n32)cc1 (stereo unspecified),"inconclusive: 6.51 µM [activator, single point]",–
O=C(CSc1ncn(-c2ccccc2)n1)c1cccs1,–,inactive: -12.6%
Cc1cc(C)c2c(=O)n(CC(=O)Nc3cccc(Cl)c3C)sc2n1,"inconclusive: 29.1 µM [activator, single point]",–
CCN1C(=O)[C@@H]2Cc3c([nH]c4ccccc34)C(c3ccc(OC)cc3)N2C1=S (stereo partly specified),"inconclusive: 29.1 µM [activator, single point]",–
CCOc1ccc(-c2cc(C(=O)N/N=C(\C)c3cccnc3)c3ccccc3n2)cc1,"inconclusive: 20.6 µM [activator, single point]",–
Cc1ccc(C(=O)N2N=C(CC(C)C)CC2(O)C(F)(F)F)o1 (stereo unspecified),–,inactive: 22.7%
CCOc1ccc2nc(NC(=O)C3CCN(S(=O)(=O)c4cnc[nH]4)CC3)sc2c1,–,inactive: -0.34%
Cn1ncc(Oc2ccc([N+](=O)[O-])cc2)c(Cl)c1=O,"inconclusive: 9.2 µM [activator, partial curve, poor fit]",–
[O-][n+]1c2ccccc2c2n1CCN1CCOC21c1ccc(Cl)cc1 (stereo unspecified),"inconclusive: 3.66 µM [activator, full curve, poor fit]",–
C/C(=N\N=C1/NC(=O)C(C)S1)c1ccco1 (stereo unspecified),–,inactive: -12.4%
CCc1cccc2c(C(=O)CN3C(=O)NC4(CCc5ccccc54)C3=O)c[nH]c12 (stereo unspecified),"inconclusive: 23.1 µM [activator, single point]",–
Cn1c(CSCc2ccc(Cl)c(Cl)c2)n[nH]c1=S,–,inactive: 2.47%
OC[C@@H]1CC[C@@H](Cc2ccc(-c3ccccc3)cc2)O1,–,inactive: 7.12%
CN(CC(=O)Nc1ccc(Cl)c(C(F)(F)F)c1)C(=O)CCc1nc2ccccc2c(=O)[nH]1,"inconclusive: 29.1 µM [activator, single point]",–
CC(/C=N/NC(=O)c1cc(-c2ccc(C)o2)[nH]n1)=C\c1ccccc1,active: 18.4 µM,–
CCOc1ccccc1NC(=O)Nc1ccsc1C(=O)OC,"inconclusive: 29.1 µM [activator, single point]",–

SMILES,Potency,re-replication activation
Cc1ccccc1C(=O)Nc1cccc(C(=O)N/N=C/c2cc(Cl)cc([N+](=O)[O-])c2O)c1,"inconclusive: 8.2 µM [activator, partial curve]",–
S=C(NCCc1ccccc1)N/N=C/c1cccc(Cl)c1Cl,–,inactive: -1.26%
CN(C)/N=C/C=C1\CC/C(=C\c2ccc(Br)cc2)C1=O,"inconclusive: 29.1 µM [activator, partial curve, poor fit]",–
COc1ccc(-c2nnn(CC(=O)N(CC(=O)NC3CCCC3)c3ccccc3F)n2)cc1OC,–,inactive: -77.1%
CCOC(=O)c1c(NC(=O)COc2cccc3c2CCN(C)C3=O)sc2c1CCC2,–,inactive: -4.26%
CCCCN(C(=O)c1cc2c(s1)CCCCC2)c1c(N)n(CCC)c(=O)[nH]c1=O,–,inactive: -4.77%
COC(=O)N1[C@H](C)C=C[C@]1(Cc1ccccc1)C(=O)O,"inconclusive: 13 µM [activator, single point]",–
COc1ccc(C(CC(=O)Nc2nccs2)n2cccc2)cc1 (stereo unspecified),"inconclusive: 29.1 µM [activator, partial curve, poor fit]",–
CN(C)CCNC(=O)c1ccc(COc2ccc(Cl)cc2Cl)cc1,"inconclusive: 20.6 µM [activator, single point]",–
CCN(Cc1ccccc1OC)CC1CCCN(CCc2cccc(OC)c2)C1 (stereo unspecified),"inconclusive: 25.9 µM [activator, partial curve, poor fit]",–
Cc1ccc(C(=O)NCCCNC(=O)c2ccco2)cn1,"inconclusive: 18.4 µM [activator, single point]",–
CC(C)(C)Nc1nc(NC(C)(C)C)nc(-n2ccnc2)n1,"inconclusive: 16.4 µM [activator, single point]",–
COc1cc2ccc(=O)oc2c(O)c1OCC=C(C)C,active: 2.06 µM,–
CC(=O)N1c2ccc(S(=O)(=O)NCC3CCC(C(=O)NCc4ccccc4)CC3)cc2CC1C (stereo unspecified),"inconclusive: 25.9 µM [activator, single point]",–
C/C(CC1CC(C)OC1=O)=N\NC(N)=S (stereo unspecified),"inconclusive: 11.6 µM [activator, single point]",–
Cc1ccc(S(=O)(=O)NCCNC(=O)CN2CCOCC2)cc1,–,inactive: -2.69%
COc1cc(NC(=O)c2ccco2)c(C(=O)OCC(=O)c2c[nH]c3ccccc23)cc1OC,"inconclusive: 29.1 µM [activator, single point]",–
O=C(OCC(=O)N1CCN(C(=O)c2ccco2)CC1)C1=COCCO1,"inconclusive: 6.51 µM [activator, single point]",–
CN(CC(=O)NCCc1ccc(S(N)(=O)=O)cc1)CC(=O)Nc1ccccc1Cl,–,inactive: -3.48%
O=C(NCc1cccc(C(F)(F)F)c1)c1cc(Cl)ccc1Cl,active: 10.3 µM,–
Cc1ccc(C)c(NC(=O)CCc2nnc3ccc(N4CCCC4)nn23)c1,–,inconclusive: -23.7% [activator]
Cc1cc2oc(C(=O)Nc3ccc(S(N)(=O)=O)cc3)c(C)c2cc1Cl,"inconclusive: 18.4 µM [activator, single point]",–
CC(=O)Nc1cccc(C(=O)/C=C/c2cccs2)c1,"inconclusive: 29.1 µM [activator, single point]",–
CCc1ccccc1NC(=O)CCC(=O)Nc1nnc(C(C)C)s1,–,inactive: -2.71%

SMILES,Potency,re-replication activation
CCCOc1ccc2nc(NC(=O)OC)[nH]c2c1,active: 376 nM and active: 2.91 µM,–
CC1CCc2nc(/C(C#N)=C/c3cccnc3)sc2C1 (stereo unspecified),"inconclusive: 29.1 µM [activator, single point]",–
CCc1ccc(NC(=S)N(Cc2ccc(Cl)cc2)Cc2ccc(C(=O)O)cc2)cc1,–,inactive: -3.07%
CCn1ncc(S(=O)(=O)NCc2ccccc2Cl)c1C,–,inactive: -0.231%
Cc1cc(C)c(S(=O)(=O)N2CCCCC2CCNC(=O)C(=O)NCCN2CCOCC2)c(C)c1 (stereo unspecified),–,inactive: -6.05%
COc1ccc(C(c2sc3ncnn3c2O)N2CC(C)OC(C)C2)cc1OC (stereo unspecified),"inconclusive: 32.6 µM [activator, partial curve, poor fit]",–
CN(C)c1ccc(C2NC(=O)c3ccccc3N2)cc1 (stereo unspecified),"inconclusive: 18.4 µM [activator, partial curve, poor fit]",–
O=C(Cn1ncc2c3ccccc3n(Cc3ccccc3)c2c1=O)NCCCN1CCCC1,"inconclusive: 29.1 µM [activator, single point]",–
Cc1ccc2c(C)c(C(=O)N(Cc3ccncc3)CC3CCCO3)oc2c1C (stereo unspecified),"inconclusive: 32.6 µM [activator, partial curve, poor fit]",–
Cc1cc(/C=C2/C(=O)NN(c3ccccc3)C2=O)c(C)n1-c1ccc(O)cc1,–,inactive: 1.12%
COC/C=C/C1=CC2=CC(=O)C(C)(OC(=O)C3CCCC3)C(=O)C2=CO1 (stereo unspecified),"inconclusive: 0.326 µM [activator, full curve, poor fit]",–
CC(=O)c1ccc(N2CCN(C(=S)Nc3cccc(Cl)c3)CC2)cc1,–,inactive: -23.4%
O=C1/C(=C\c2cccs2)N=C(c2cccs2)N1Nc1ccccc1,"inconclusive: 18.4 µM [activator, single point]",–
O=C(N/N=C/c1ccc(OC(=O)c2ccccc2Cl)cc1)c1cc(O)cc(O)c1,"inconclusive: 18.4 µM [activator, partial curve, poor fit]",–
Cc1ccc(N(Cc2ccccc2)C(=O)c2ccc(Cl)c(S(=O)(=O)N3CCOCC3)c2)cc1,"inconclusive: 25.9 µM [activator, partial curve, poor fit]",–
Cn1cc(/C=C(\C#N)C(=O)Nc2ncc(Cc3ccc(Cl)cc3)s2)c2ccccc21,"inconclusive: 14.6 µM [activator, partial curve]",–
CC1=CN2C(=N)/C(=C/c3ccc(Sc4ccc(C)cc4)o3)C(=O)N=C2S1,"inconclusive: 11.6 µM [activator, single point]",–
COc1cc(C(=O)O)cc(NC(=O)c2ccco2)c1OC,"inconclusive: 14.6 µM [activator, single point]",–
CN(Cc1ccccc1F)C(=O)c1cccc(NC(=O)CC2SC(N3CCCCC3)=NC2=O)c1 (stereo unspecified),–,inactive: 0.771%
CNC(=S)NNC(=O)c1ccc(=O)n(Cc2cccc(C(F)(F)F)c2)c1,"inconclusive: 18.4 µM [activator, single point]",–
Cc1ccc(C(OCC(O)CN2CCCCC2CO)c2ccccc2)cc1 (stereo unspecified),–,inactive: 28.1%
C=CCOc1ccc(/C=N/NC(=O)CN2CCOCC2)cc1OCC,–,inactive: -17.6%
C=CCN1C(c2ccc(Br)cc2)=CS/C1=C(\C#N)c1nnc(N2CCOCC2)n1-c1ccccc1,"inconclusive: 29.1 µM [activator, single point]",–
